Results on one substance are retold here after paper PMC8389195, “Demyristoylation of the Cytoplasmic Redox Protein Trx-h2 Is Critical for Inducing a Rapid Cold Stress Response in Plants”.

Amino acid sequences for entries named in this document (tags omitted).
UniProt P93835: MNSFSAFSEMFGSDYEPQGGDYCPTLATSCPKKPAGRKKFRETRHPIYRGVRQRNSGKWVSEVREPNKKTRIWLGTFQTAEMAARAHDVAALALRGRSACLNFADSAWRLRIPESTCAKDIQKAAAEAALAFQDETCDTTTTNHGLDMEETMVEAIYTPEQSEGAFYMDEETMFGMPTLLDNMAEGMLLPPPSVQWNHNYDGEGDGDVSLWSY

Where a chain is given by its changes, count along the chain named. No constants are given. Whether binding was seen depends on the method and setting. In cells and extracts the contact can be indirect. Some results given as binding are weak or reduced against the parent protein; the word gives no strength.

Assay [1] has as its target T1, Trx-h2-YN (Arabidopsis thaliana) (UniProt Q38879).
T1 sequence: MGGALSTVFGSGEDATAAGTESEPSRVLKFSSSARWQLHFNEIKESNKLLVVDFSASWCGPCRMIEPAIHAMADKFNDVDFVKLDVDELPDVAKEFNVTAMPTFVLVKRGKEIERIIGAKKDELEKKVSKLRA
Briefly: condition: only leaves kept at 22 °C (no cold treatment); split reporter; as a3, leaves incubated at 22 °C without cold treatment.

Assay [2] concerns the target T2, Trx-h2(G/A)-YN (Arabidopsis thaliana) (UniProt Q38879).
T2 sequence: T1 sequence with G2A
Kind of assay: split reporter; BiFC: YN and YC fusions co-expressed in N. benthamiana leaves by agroinfiltration; 2 days, then 4 °C or 22 °C for 6 h; confocal microscopy with NLS-RFP as nuclear marker.

Assay [3] concerns the target T1, Trx-h2-YN (Arabidopsis thaliana). The assay is described as above.

For YC-CBF1 (from UniProt P93835 1-213), the results for the binding result in assay [1], in assay [2] and in assay [3] were “no binding”, “binds” and “binds”, respectively.
